Reference: patent US20060191037

Protein sequences, listed by entry. Tags and fused reporters are not part of them. Lines headed by an entry give the natural chain unless they say otherwise; changes in a name come on top.
UniProt Q6VWJ6: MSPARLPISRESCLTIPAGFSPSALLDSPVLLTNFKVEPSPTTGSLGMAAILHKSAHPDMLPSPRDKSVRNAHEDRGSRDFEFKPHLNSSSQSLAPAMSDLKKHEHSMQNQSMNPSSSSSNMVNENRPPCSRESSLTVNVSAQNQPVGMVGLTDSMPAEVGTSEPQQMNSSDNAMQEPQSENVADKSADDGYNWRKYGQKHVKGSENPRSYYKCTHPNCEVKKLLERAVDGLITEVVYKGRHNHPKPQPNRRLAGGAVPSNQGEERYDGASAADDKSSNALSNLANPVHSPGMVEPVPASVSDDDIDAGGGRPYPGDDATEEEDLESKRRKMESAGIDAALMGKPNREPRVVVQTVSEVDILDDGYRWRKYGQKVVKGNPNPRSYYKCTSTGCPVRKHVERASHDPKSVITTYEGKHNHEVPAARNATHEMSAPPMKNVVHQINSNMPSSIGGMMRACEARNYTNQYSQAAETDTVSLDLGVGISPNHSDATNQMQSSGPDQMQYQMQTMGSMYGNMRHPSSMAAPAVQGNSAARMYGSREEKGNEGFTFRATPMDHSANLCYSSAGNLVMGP

Target: SUSIBA2 (WRKY transcription factor + purified fraction with 70 and 68 kDa forms) (Hordeum vulgare) (UniProt Q6VWJ6)
Experiment: footprint
Conditions: within promoter fragment; weaker than SURE-b; purified recombinant protein; protein details: N-terminal His-tag (pET-15b, E. coli BL21(DE3))

Sequence: CCGAAAAAAACTAAGAAAGACCGATG (double strand) [iso1 SURE-a site]
- binding result: binds more weakly

A weaker result is weaker than the reference pair of the same experiment.
